# Results deposited as PubChem BioAssay AID1053208 (Peter MacCallum Cancer Centre, 2014).
# Test: 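Synthetic lethal interactions between gene loss and doxorubicin in osteosarcoma cells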 (primary screen)
# System: mouse osteosarcoma cells, early-passage culture from an engineered mouse model of fibroblastic bone tumour
# Reagents: siRNA pool against mouse genes, 40 nM
# Duration: about 120 h (48 h before drug, then 72 h with drug)
# Conditions: doxorubicin 100 nM for 72 h, roughly 30-40% inhibitory dose
# Detection: 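Viability read as ATP luminescence after 72 h of 100 nM doxorubicin or none, duplicate wells averaged, scaled to non-targeting siRNA, then expressed as robust z-scores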
# Scale: viability z-score with doxorubicin and doxorubicin viability vs non-targeting: higher = more viable cells under doxorubicin; viability z-score without drug: higher = more viable cells with knock-down alone; z-score of drug to no-drug ratio: higher = less drug sensitisation by knock-down
# Rule for the call: 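Called active if knock-down leaves viability unchanged without drug (z within -2 to 2) but lowers it with doxorubicin (z at or under -2)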
# The whole screen tested about 17,000 reagents; shown is a random part of them. 788 of them (4.7%) count as active. 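Calls rest on z-score classes alone; an extra cut-off of viability at most 70% of control was not applied to them.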 Reagents against one gene are numbered here. Some reagents were tested in more than one well and are listed for each.
Target gene,reagent,combined z-score class,viability z-score with doxorubicin,viability z-score without drug,z-score of drug to no-drug ratio,doxorubicin viability vs non-targeting,activity call
Prl3c1,1,no change with or without drug,0.67,-0.84,1.46,1,inactive
Abcf2,1,no change with or without drug,0,-1.18,1.01,0.94,inactive
Gfpt1,1,no change with or without drug,0.45,0.17,0.45,0.98,inactive
Ncbp2as2,1,no change with or without drug,-1.12,0.17,-1.12,0.84,inactive
Fth1,1,no change with or without drug,-0.9,-0.17,-0.79,0.86,inactive
Slc36a4,1,no change with or without drug,-1.91,-0.17,-1.8,0.77,inactive
Sry,1,no change with or without drug,0.45,0.51,0.22,0.98,inactive
Cep170,1,no change with or without drug,1.12,-0.84,2.02,1.04,inactive
Aftph,1,no change with or without drug,-0.45,-0.17,-0.22,0.9,inactive
Trpd52l3,1,low cell count without drug only,-1.24,-2.53,0.67,0.83,inactive
Trpd52l3,1,no change with or without drug,0.11,0.17,0.11,0.95,inactive
Lrp12,1,no change with or without drug,0.34,-1.18,1.35,0.97,inactive
Gcc1,1,no change with or without drug,-0.22,0.67,-0.56,0.92,inactive
Fam76b,1,no change with or without drug,-0.45,1.01,-1.01,0.9,inactive
Ca13,1,no change with or without drug,-1.8,-0.34,-1.57,0.78,inactive
Samd14,1,no change with or without drug,0,-0.84,0.67,0.94,inactive
Vta1,1,no change with or without drug,1.8,0.51,1.57,1.1,inactive
Acrv1,1,no change with or without drug,-0.67,0.17,-0.67,0.88,inactive
Birc5,1,low cell count with and without drug,-2.25,-2.87,-0.34,0.74,inactive
H2-M9,1,no change with or without drug,-0.22,-0.67,0.34,0.92,inactive
Plekhh2,1,no change with or without drug,0.45,1.18,-0.22,0.98,inactive
Enkd1,1,no change with or without drug,-1.12,1.52,-1.91,0.84,inactive
Msx3,1,no change with or without drug,0.45,0.34,0.34,0.98,inactive

Next part (4 carried over from the part before).
Target gene,reagent,combined z-score class,viability z-score with doxorubicin,viability z-score without drug,z-score of drug to no-drug ratio,doxorubicin viability vs non-targeting,activity call
H2-M9,1,no change with or without drug,-0.22,-0.67,0.34,0.92,inactive
Plekhh2,1,no change with or without drug,0.45,1.18,-0.22,0.98,inactive
Enkd1,1,no change with or without drug,-1.12,1.52,-1.91,0.84,inactive
Msx3,1,no change with or without drug,0.45,0.34,0.34,0.98,inactive
Sptbn4,1,no change with or without drug,0.56,0.34,0.45,0.99,inactive
Sez6l2,1,no change with or without drug,0.11,0.51,-0.11,0.95,inactive
Stam,1,no change with or without drug,-0.22,0.17,-0.22,0.92,inactive
Nxt2,1,no change with or without drug,0.11,0.67,-0.22,0.95,inactive
6530405K19,1,no change with or without drug,-0.34,0.51,-0.56,0.91,inactive
Prpf4b,1,no change with or without drug,-1.12,-1.52,0,0.84,inactive
Cdkn2a,1,no change with or without drug,-0.56,-0.84,0.11,0.89,inactive
Pgap2,1,no change with or without drug,-1.46,-0.17,-1.35,0.81,inactive
Sertad1,1,high cell count without drug only,1.35,2.19,0,1.06,inactive
Prkrip1,1,high cell count with and without drug,2.59,2.19,1.12,1.17,inactive
Hbs1l,1,no change with or without drug,-0.22,1.52,-1.12,0.92,inactive
Mlst8,1,no change with or without drug,-0.11,-0.84,0.56,0.93,inactive
Cd47,1,no change with or without drug,0.45,-0.51,1.01,0.98,inactive
Cd47,2,no change with or without drug,0.22,0.34,0.11,0.96,inactive
Gnpnat1,1,no change with or without drug,0.11,-0.51,0.56,0.95,inactive
Inca1,1,no change with or without drug,0.34,0.17,0.34,0.97,inactive
Cd300lf,1,no change with or without drug,-0.22,-0.51,0.22,0.92,inactive
Lrrtm3,1,no change with or without drug,1.46,0.17,1.46,1.07,inactive
Bend6,1,no change with or without drug,0.45,1.01,-0.11,0.98,inactive
Ctss,1,no change with or without drug,-1.35,-1.85,0,0.82,inactive
Or10d5j,1,no change with or without drug,-0.9,0.51,-1.12,0.86,inactive
Mybpc1,1,no change with or without drug,-0.11,-0.17,0.11,0.93,inactive
Mycbp,1,no change with or without drug,-0.67,-1.18,0.22,0.88,inactive
Efna1,1,no change with or without drug,-0.9,-0.84,-0.22,0.86,inactive
Ercc5,1,no change with or without drug,1.12,0.84,0.67,1.04,inactive
C530043A13Rik,1,no change with or without drug,1.12,0.17,1.12,1.04,inactive
Aldoa,1,no change with or without drug,-0.22,0.84,-0.67,0.92,inactive
